Record: PubChem BioAssay AID602196 (INSERM, 2012)
Aim: 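Knock-downs that protect lung cancer cells from cisplatin or sensitise them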. Cell system: human A549 lung cancer cells. Knock-down reagent: siRNA pair against human genes. Time to read-out: 48 h transfection before cisplatin; time from cisplatin to read-out not stated. Conditions: cisplatin at a dose killing half of control-siRNA cells; exact dose and duration not given. Detection: 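Cisplatin cell death as a shift from the 50% death seen with control siRNA; siRNAs toxic or growth-blocking alone scored 0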. Scale: two-siRNA summed score (-2 to +2): higher = both siRNAs protect from cisplatin killing; -2 means both sensitise; mean protection from cisplatin (shift in death) and protection from cisplatin (shift in death), siRNA C and protection from cisplatin (shift in death), siRNA D: higher = protection from cisplatin killing. Rule for the call: 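siRNAs harmful alone (LDH or WST-1) get 0; others get +1 for less and -1 for more cisplatin killing; genes are active when the two siRNAs give the same sign, summing to ±2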. Calls: active = both siRNAs shift cisplatin killing the same way; inactive = no consistent shift, or siRNA harmful alone.
Here is one part, drawn at random, of about 23,000 reagents. 455 of them (2%) count as active. 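Active includes both protection and sensitisation; some change values fall well beyond the stated -50 to +50 range.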 The numbers tell different reagents against one gene apart. Not given: the amount of reagent.

no.	gene knocked down	reagent no.	two-siRNA summed score (-2 to +2)	mean protection from cisplatin (shift in death) (%)	protection from cisplatin (shift in death), siRNA C (%)	protection from cisplatin (shift in death), siRNA D (%)	outcome
1	EFNB3	1	0	0.6	-4	5.2	inactive
2	DDIT3	1	-1	-11	-17.1	-4.9	inactive
3	IFIT5	1	0	6.6	5	8.2	inactive
4	SSTR3	1	1	7.7	16.6	-1.2	inactive
5	IL11	1	-1	-15.2	-22.9	-7.4	inactive
6	GIPC2	1	0	2.3	2.9	1.7	inactive
7	NINJ2	1	0	0.3	0.2	0.3	inactive
8	LOC339231	1	0	22.1	13.3	30.8	inactive
9	DGKD	1	1	7.1	25	-10.8	inactive
10	FAM3A	1	-1	-17.2	-18.1	-16.3	inactive
11	POMC	1	-1	-17	-33.3	-0.7	inactive
12	WRAP73	1	1	13.9	30.7	-2.9	inactive
13	MRC1	1	0	-10.5	-21.4	0.3	inactive
14	MRC1	2	0	2.4	7	-2.1	inactive
15	PCDHB5	1	0	-28.7	-21.9	-35.5	inactive
16	LOC440834	1	0	7.7	10.5	5	inactive
17	LOC152078	1	2	17.5	23	12	active
18	PSTPIP2	1	0	-0.9	-3.1	1.3	inactive
19	LOC387643	1	0	8.6	10	7.2	inactive
20	ZNF596	1	1	1.4	-9.6	12.5	inactive
21	BEX2	1	1	2.7	-6.1	11.5	inactive
22	NDUFAF3	1	0	1.1	-9.3	11.4	inactive
23	LTBP1	1	0	8.3	1.7	15	inactive
24	PRKAR2B	1	-1	-3.5	10.4	-17.3	inactive
25	PTPN6	1	0	17.2	7.9	26.6	inactive
26	LARGE1	1	-1	-9.9	11.7	-31.6	inactive
27	PSG1	1	0	7.4	3.5	11.3	inactive
28	LOC158796	1	0	15.3	11.8	18.9	inactive
29	HAS1	1	0	-13	-19	-7	inactive
30	LOC254439	1	0	6.6	3.2	10.1	inactive
31	RNF19A	1	0	-3.8	0.9	-8.5	inactive
32	ZNF432	1	0	2.6	4.4	0.7	inactive
33	NCAPD3	1	1	12.7	18	7.4	inactive
34	RAB11FIP1	1	0	-7.1	-4.7	-9.6	inactive
35	CD200R1	1	0	10	13.8	6.3	inactive
36	BAAT	1	0	0.4	1.2	-0.4	inactive
37	LOC286187	1	0	8.5	6.3	10.6	inactive
38	RDUR	1	0	8.1	16.7	-0.5	inactive
39	LYZL2	1	0	-1.6	6.9	-10.1	inactive
40	MGAT4FP	1	1	15.5	11.4	19.5	inactive
41	LOC440768	1	1	3.8	18.2	-10.6	inactive
42	AP3B2	1	0	10.2	16.8	3.6	inactive
43	HSD3B1	1	0	3.8	11.9	-4.3	inactive
44	NETO1	1	0	7.6	7	8.1	inactive
45	USP4	1	0	-11.9	-19.9	-3.9	inactive
46	PSMA4	1	0	5.1	-0.3	10.4	inactive
47	TCOF1	1	0	5.1	-2.1	12.2	inactive
48	GPT2	1	0	-7.7	-11.4	-4	inactive
49	KIAA1958	1	0	-3.5	5.2	-12.2	inactive
50	ZNF492	1	1	8.4	-1.5	18.4	inactive
51	LOC392335	1	1	14.6	18.8	10.4	inactive
52	FAM50A	1	0	24.5	43.5	5.5	inactive
53	NUDT16L2P	1	0	11.9	19.9	3.9	inactive
54	TRPV1	1	-1	-12.3	-14.1	-10.5	inactive
55	LOC441713	1	1	7.2	13.8	0.7	inactive
56	GPNMB	1	-1	-6.9	5.2	-19	inactive
57	OR4M2	1	0	10.2	11.5	8.9	inactive
58	LOC440403	1	0	4.8	-3.6	13.1	inactive
59	NR1H4	1	0	5.5	1.6	9.3	inactive
60	CHIC2	1	0	-18	-33.6	-2.3	inactive
61	CSN2	1	-1	-2.8	-15.9	10.2	inactive
62	GUSBP4	1	1	16.8	15.8	17.8	inactive
63	PDE4D	1	-1	-14.4	-5.4	-23.3	inactive
64	LOC401191	1	2	22.3	23.3	21.3	active
65	EP300	1	0	-11.7	-11	-12.4	inactive
66	FSD2	1	0	-2.7	-6.1	0.7	inactive
67	VPS26C	1	0	-9.1	-7.1	-11.1	inactive
68	LOC139886	1	-1	-18.4	-23.6	-13.2	inactive
69	LOC118945	1	0	16.5	18.8	14.2	inactive
70	VPS41	1	0	10	22.8	-2.9	inactive
71	YY2	1	1	11.6	16.3	6.8	inactive
72	OSTC	1	0	4.1	-2.1	10.3	inactive
73	ZNF283	1	0	16.1	16.7	15.5	inactive

In a second layout: results already given.
| gene knocked down | reagent no. | two-siRNA summed score (-2 to +2) | mean protection from cisplatin (shift in death) (%) | protection from cisplatin (shift in death), siRNA C (%) | protection from cisplatin (shift in death), siRNA D (%) | outcome |
| --- | --- | --- | --- | --- | --- | --- |
| PDE4D | 1 | -1 | -14.4 | -5.4 | -23.3 | inactive |
| LOC401191 | 1 | 2 | 22.3 | 23.3 | 21.3 | active |
| EP300 | 1 | 0 | -11.7 | -11 | -12.4 | inactive |
| FSD2 | 1 | 0 | -2.7 | -6.1 | 0.7 | inactive |
| VPS26C | 1 | 0 | -9.1 | -7.1 | -11.1 | inactive |
| LOC139886 | 1 | -1 | -18.4 | -23.6 | -13.2 | inactive |
| LOC118945 | 1 | 0 | 16.5 | 18.8 | 14.2 | inactive |
